# Microarray screen: hit calls

From ROBIN, a set of small-molecule microarray screens (doi:10.1002/anie.202211358).

Oligonucleotides screened, 5′ to 3′:
PreQ1: PreQ1 riboswitch RNA pseudoknot, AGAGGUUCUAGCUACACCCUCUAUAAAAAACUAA. From B. subtilis. About 170 hits among about 24,000 compounds.
TPP: TPP riboswitch RNA three-way junction, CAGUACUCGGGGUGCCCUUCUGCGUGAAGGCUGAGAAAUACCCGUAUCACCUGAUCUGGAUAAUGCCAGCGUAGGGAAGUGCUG. About 160 hits among about 24,000 compounds.
SAM-II: SAM-II riboswitch RNA pseudoknot, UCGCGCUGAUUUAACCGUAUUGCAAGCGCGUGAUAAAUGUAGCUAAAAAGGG. About 200 hits among about 21,000 compounds.

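Each compound is printed as two spots on a slide made to bind it covalently, so it has no test concentration; the read-out is fluorescence of the bound, labelled oligonucleotide. The data file lists only calls. An earlier report of the laboratory on the PreQ1, TPP and SAM-II riboswitches (doi:10.1038/s41467-019-09493-3) used 1 µM RNA for 2 h and required a mean Z-score above 3 (spot signal-to-noise against the whole library), a score well above that on a control array, and duplicate spots agreeing (coefficient of variation under 100); it then also set aside compounds that hit other targets, which this list keeps. The cut-offs behind this list may differ. The calls come from the array alone, and fixing a compound to the slide can hide its binding.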
“1” means called a hit, “0” means screened and not called a hit.
Compounds were drawn at random from those tested, without regard to their results.
A dash means that no call is listed here.

| SMILES | PreQ1 | TPP | SAM-II |
|---|---|---|---|
| `CCn1c(N)nc2cc(C(=O)NCc3cnn4cccnc34)cnc21` | 0 | 0 | 0 |
| `c1cncc(CNCc2ccsc2)c1` | 0 | 0 | 0 |
| `COCCN1CCC(CN(C)C(=O)c2ccccc2NCC(=O)O)C1` (stereo not given) | 0 | 0 | 0 |
| `CC(C)OC(=O)c1nc(N)n[nH]1.Cl` | 0 | 0 | 0 |
| `COCc1cc(C)nc2sc(-c3nc(Cc4ccccc4)no3)c(N)c12` | 0 | 0 | 0 |
| `Cn1ncc2c(N3CC[C@H](O)C3)nc(CCc3ccccc3)nc21` | 0 | 0 | 0 |
| `CSc1cccc(CN(C(=O)C2CNCCO2)C(C)C)c1` (stereo not given) | 0 | 0 | 0 |
| `Cc1cccc(C)c1OCC(O)Cn1c(C)nc2ccccc21` (stereo not given) | 0 | 0 | - |
| `NC1=C(c2nc(-c3ccccc3)cs2)C(=O)CN1CC1CCCO1` (stereo not given) | 0 | 0 | - |
| `CN1C(=O)N(CCc2nccn2C)C(=O)C12CCNCC2` | 0 | 0 | 0 |
| `Fc1ccc(-c2noc(-c3ccc(NCCN4CCOCC4)nc3)n2)cc1` | 0 | 0 | 0 |
| `CN(C)CCNc1oc(-c2ccc(S(=O)(=O)N3CCCC3)cc2)nc1C#N` | 0 | 0 | - |
| `COc1ccc(C2=C(C)C(Nc3ccc(CN4CCC(C)CC4)cc3)=NS2(=O)=O)cc1` | 0 | 0 | - |
| `Nc1nonc1-c1nc2ccccc2n1CC(=O)N1CCN(c2ccc(F)cc2)CC1` | 0 | 0 | 0 |
| `Cc1ccc(CCNCc2ccc(C(=O)O)s2)cc1` | 0 | 0 | - |
| `Cc1nc(C)c(C(=O)N2Cc3ccccc3C(O)C2)s1` (stereo not given) | 0 | 0 | 0 |
| `c1ccc2c(c1)nnn2-c1ccncc1` | 0 | 0 | 0 |
| `O=C(NCCO)c1cccc([N+](=O)[O-])c1` | 0 | 0 | 0 |
| `CCOC(=O)c1c(-c2ccsc2)csc1N` | 0 | 0 | 0 |
| `COC(=O)C1=C(N)Oc2c(c(=O)oc3ccccc23)C12C(=O)Nc1ccccc12` (stereo not given) | 0 | 0 | 0 |
| `O=C(CCCn1nnc(-c2ccc(F)cc2)n1)N1[C@H]2CCNC[C@@H]1CC2` | 0 | 0 | 0 |
| `O=C(O)c1ccc(NC2=NS(=O)(=O)c3ccccc32)cc1` | 0 | 0 | 0 |
| `Cc1cc2ncn(CC(O)COc3ccc(C(=O)O)cc3)c2cc1C` (stereo not given) | 0 | 0 | 0 |
| `COc1ccc2c(c1)CC(C(=O)NCc1nc(N)nc(N(C)C)n1)CO2` (stereo not given) | 0 | 0 | 0 |
| `CCCNc1ncccc1-c1nc(-c2ccc(Cl)cc2)no1` | 0 | 0 | - |
| `O=C(NCC1COc2ccccc2C1)c1cn(CCN2CCNCC2)nn1` (stereo not given) | 0 | 0 | 0 |
| `Cc1ccccc1OCC(O)CN1CCN(c2ccc(Cl)cc2)CC1` (stereo not given) | 0 | 0 | 0 |
| `Nc1c(C(=O)C2CC2)sc2nc(-c3ccccc3)cc(-c3ccc(F)cc3)c12` | 0 | 0 | 0 |
| `COCCCNc1nc2c(c(=O)n(C)c(=O)n2C)n1Cc1ccc(C)cc1` | 0 | 0 | 0 |
| `COC(=O)C1=C(C)OC(N)=C(C#N)C1c1ccc(Cl)c(Cl)c1` (stereo not given) | 0 | 0 | 0 |
| `C#CCN1C(=O)C2(C(C#N)=C(N)OC(C)=C2C(=O)OCc2ccccc2)c2ccccc21` (stereo not given) | 0 | 0 | 0 |
| `O=C1c2ccccc2C(Nc2ccccc2C(F)(F)F)N1Cc1ccccc1` (stereo not given) | 0 | 0 | 0 |
| `O=C(c1ccc(CNc2c(N3CCCC3)c(=O)c2=O)cc1)N1CCc2ccccc21` | 0 | 0 | - |
| `CC(Cn1cncn1)NCc1cc(O)c2cc(F)ccc2n1` (stereo not given) | 0 | 0 | 0 |
| `COC(=O)CNc1cc(C)nc2nc(-c3cccc(C)c3)nn12` | 0 | 0 | - |
| `CCCCOCC(O)CN1CCN(C(C)=O)CC1` (stereo not given) | 0 | 0 | 0 |
| `Nc1ccc2nc(SCC(=O)c3ccc(Cl)cc3)sc2c1` | 0 | 0 | 0 |
| `Cc1cc(C)c2c(N)c(-c3nc4ccccc4c(=O)[nH]3)sc2n1` | 0 | 0 | 0 |
| `CSc1nccc(N2CCC(NCc3nc(C)c4c(n3)CCCC4)CC2)n1` | 0 | 0 | 0 |
| `Oc1cccc(-c2nc(N3CCOCC3)c3oc4ncccc4c3n2)c1` | 0 | 0 | 0 |
| `CC(C)C[C@@H](N)C(=O)NCc1ccc2nsnc2c1` | 0 | 0 | 0 |
| `COc1ccc(S(=O)(=O)n2nc(-c3ccc(OC)cc3OC)cc2N)cc1` | 0 | 0 | 0 |
| `N#CC1=C(N)Oc2c(c(=O)sc3ccccc23)C1c1cccc(F)c1` (stereo not given) | 0 | 0 | 0 |
| `Cc1cc(C)cc(Nc2c(-c3ccc(O)cc3)nc3cnccn23)c1` | 0 | 0 | - |
| `CCSc1nc(CC(=O)N2CCOC3(CNCCOC3)C2)cs1` (stereo not given) | 0 | 0 | 0 |
| `CCc1nnc2c3ccccc3nc(Nc3ccccc3OC)n12` | 0 | 0 | 0 |
| `CSc1nc(NCC2CCCO2)c(C#N)c(-c2ccc(Cl)cc2)n1` (stereo not given) | 0 | 0 | - |
| `O=C(O)CNc1ccccc1C(=O)NCC1(O)CCCCC1` | 0 | 0 | 0 |
| `OCCCc1nc2ccccc2n1CCCOc1ccc(Cl)cc1` | 0 | 0 | 0 |
| `CC(C)C1Cc2c(sc3nc(SCc4ccccc4)nc(N)c23)CO1` (stereo not given) | 0 | 0 | 0 |
| `CCOC(=O)c1c(N)n(-c2ccccc2)c2nc3ccccc3nc12` | 0 | 0 | 0 |
| `CNC(=O)c1ccc(-c2ccc(C3CCCN3)cc2)o1` (stereo not given) | 0 | 0 | 0 |
| `O=C1OCC/C1=C\NCCCCCCCCN/C=C1\CCOC1=O` | 0 | 0 | 0 |
| `NC(=O)c1ccccc1OCC(=O)Nc1ccc(Cl)c(Cl)c1` | 0 | 0 | 0 |
| `C[C@H](N)C(=O)N[C@@H]1[C@H]2C(=C(O)C[C@@H](O)[C@@H]2O)C(=O)O[C@]1(C)C(Cl)Cl` | 0 | 0 | 0 |
| `Cc1ccc(-c2noc(-c3nnn(-c4ccccc4C)c3N)n2)cc1` | 0 | 0 | - |
| `O=C(CCCCCCC(=O)Nc1ccccc1)NO` | 0 | 0 | 0 |
| `OC(CN1CCCCCC1)Cn1cnnc1` (stereo not given) | 0 | 0 | 0 |
| `CC(Sc1nnc(N)s1)c1ccccc1Cl` (stereo not given) | 0 | 0 | 0 |
| `CN(C)CCNc1c2c(nc3ccccc13)CCC2` | 0 | 0 | 0 |

Some entries from above, unchanged:

SMILES	PreQ1	TPP	SAM-II
CC(C)C[C@@H](N)C(=O)NCc1ccc2nsnc2c1	0	0	0
Cc1cc2ncn(CC(O)COc3ccc(C(=O)O)cc3)c2cc1C (stereo not given)	0	0	0
CCCCOCC(O)CN1CCN(C(C)=O)CC1 (stereo not given)	0	0	0
Cc1cc(C)c2c(N)c(-c3nc4ccccc4c(=O)[nH]3)sc2n1	0	0	0